Data as given in publication PMC6316800.

Chains of the proteins cited; added tags and fusions are not shown.
UniProt P03496: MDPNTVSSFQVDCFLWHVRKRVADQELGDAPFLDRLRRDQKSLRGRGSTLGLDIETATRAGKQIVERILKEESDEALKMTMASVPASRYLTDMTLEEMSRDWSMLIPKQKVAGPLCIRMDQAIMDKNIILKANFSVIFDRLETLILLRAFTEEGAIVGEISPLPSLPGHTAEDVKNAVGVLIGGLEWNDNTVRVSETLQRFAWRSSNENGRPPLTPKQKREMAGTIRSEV

Target: Influenza A virus non-structural protein 1 (NS1), strain A/Puerto Rico/8/1934(H1N1) (Influenza A virus A/Puerto Rico/8/1934(H1N1)) (UniProt P03496)
Assay: affinity purification with mass spectrometry

| Binder | binding |
| --- | --- |
| 5’-3’ exoribonuclease 2 (protein, UniProt Q9H0D6 1-950) MGVPAFFRWLSRKYPSIIVNCVEEKPKECNGVKIPVDASKPNPNDVEFDNLYLDMNGIIHPCTHPEDKPAPKNEDEMMVAIFEYIDRLFSIVRPRRLLYMAIDGVAPRAKMNQQRSRRFRASKEGMEAAVEKQRVREEILAKGGFLPPEEIKERFDSNCITPGTEFMDNLAKCLRYYIADRLNNDPGWKNLTVILSDASAPGEGEHKIMDYIRRQRAQPNHDPNTHHCLCGADADLIMLGLATHEPNFTIIREEFKPNKPKPCGLCNQFGHEVKDCEGLPREKKGKHDELADSLPCAEGEFIFLRLNVLREYLERELTMASLPFTFDVERSIDDWVFMCFFVGNDFLPHLPSLEIRENAIDRLVNIYKNVVHKTGGYLTESGYVNLQRVQMIMLAVGEVEDSIFKKRKDDEDSFRRRQKEKRKRMKRDQPAFTPSGILTPHALGSRNSPGSQVASNPRQAAYEMRMQNNSSPSISPNTSFTSDGSPSPLGGIKRKAEDSDSEPEPEDNVRLWEAGWKQRYYKNKFDVDAADEKFRRKVVQSYVEGLCWVLRYYYQGCASWKWYYPFHYAPFASDFEGIADMPSDFEKGTKPFKPLEQLMGVFPAASGNFLPPSWRKLMSDPDSSIIDFYPEDFAIDLNGKKYAWQGVALLPFVDERRLRAALEEVYPDLTPEETRRNSLGGDVLFVGKHHPLHDFILELYQTGSTEPVEVPPELCHGIQGKFSLDEEAILPDQIVCSPVPMLRDLTQNTVVSINFKDPQFAEDYIFKAVMLPGARKPAAVLKPSDWEKSSNGRQWKPQLGFNRDRRPVHLDQAAFRTLGHVMPRGSGTGIYSNAAPPPVTYQGNLYRPLLRGQAQIPKLMSNMRPQDSWRGPPPLFQQQRFDRGVGAEPLLPWNRMLQTQNAAFQPNQYQMLAGPGGYPPRRDDRGGRQGYPREGRKYPLPPPSGRYNWN | binds |
| WD repeat-containing protein 74 (protein, UniProt Q6RFH5 1-385) MAAAAARWNHVWVGTETGILKGVNLQRKQAANFTAGGQPRREEAVSALCWGTGGETQMLVGCADRTVKHFSTEDGIFQGQRHCPGGEGMFRGLAQADGTLITCVDSGILRVWHDKDKDTSSDPLLELRVGPGVCRMRQDPAHPHVVATGGKENALKIWDLQGSEEPVFRAKNVRNDWLDLRVPIWDQDIQFLPGSQKLVTCTGYHQVRVYDPASPQRRPVLETTYGEYPLTAMTLTPGGNSVIVGNTHGQLAEIDLRQGRLLGCLKGLAGSVRGLQCHPSKPLLASCGLDRVLRIHRIQNPRGLEHKVYLKSQLNCLLLSGRDNWEDEPQEPQEPNKVPLEDTETDELWASLEAAAKRKLSGLEQPQGALQTRRRKKKRPGSTSP | binds |
| Probable ATP-dependent RNA helicase DDX56 (protein, UniProt Q9NY93 1-547) MEDSEALGFEHMGLDPRLLQAVTDLGWSRPTLIQEKAIPLALEGKDLLARARTGSGKTAAYAIPMLQLLLHRKATGPVVEQAVRGLVLVPTKELARQAQSMIQQLATYCARDVRVANVSAAEDSVSQRAVLMEKPDVVVGTPSRILSHLQQDSLKLRDSLELLVVDEADLLFSFGFEEELKSLLCHLPRIYQAFLMSATFNEDVQALKELILHNPVTLKLQESQLPGPDQLQQFQVVCETEEDKFLLLYALLKLSLIRGKSLLFVNTLERSYRLRLFLEQFSIPTCVLNGELPLRSRCHIISQFNQGFYDCVIATDAEVLGAPVKGKRRGRGPKGDKASDPEAGVARGIDFHHVSAVLNFDLPPTPEAYIHRAGRTARANNPGIVLTFVLPTEQFHLGKIEELLSGENRGPILLPYQFRMEEIEGFRYRCRDAMRSVTKQAIREARLKEIKEELLHSEKLKTYFEDNPRDLQLLRHDLPLHPAVVKPHLGHVPDYLVPPALRGLVRPHKKRKKLSSSCRKAKRAKSQNPLRSFKHKGKKFRPTAKPS | binds |
| H/ACA ribonucleoprotein complex subunit 4 (protein, UniProt O60832 1-514) MADAEVIILPKKHKKKKERKSLPEEDVAEIQHAEEFLIKPESKVAKLDTSQWPLLLKNFDKLNVRTTHYTPLACGSNPLKREIGDYIRTGFINLDKPSNPSSHEVVAWIRRILRVEKTGHSGTLDPKVTGCLIVCIERATRLVKSQQSAGKEYVGIVRLHNAIEGGTQLSRALETLTGALFQRPPLIAAVKRQLRVRTIYESKMIEYDPERRLGIFWVSCEAGTYIRTLCVHLGLLLGVGGQMQELRRVRSGVMSEKDHMVTMHDVLDAQWLYDNHKDESYLRRVVYPLEKLLTSHKRLVMKDSAVNAICYGAKIMLPGVLRYEDGIEVNQEIVVITTKGEAICMAIALMTTAVISTCDHGIVAKIKRVIMERDTYPRKWGLGPKASQKKLMIKQGLLDKHGKPTDSTPATWKQEYVDYSESAKKEVVAEVVKAPQVVAEAAKTAKRKRESESESDETPPAAPQLIKKEKKKSKKDKKAKAGLESGAEPGDGDSDTTKKKKKKKKAKEVELVSE | binds |
| Zinc finger protein 326 (protein, UniProt Q5BKZ1 1-582) MDFEDDYTHSACRNTYQGFNGMDRDYGPGSYGGMDRDYGHGSYGGQRSMDSYLNQSYGMDNHSGGGGGSRFGPYESYDSRSSLGGRDLYRSGYGFNEPEQSRFGGSYGGRFESSYRNSLDSFGGRNQGGSSWEAPYSRSKLRPGFMEDRGRENYSSYSSFSSPHMKPAPVGSRGRGTPAYPESTFGSRNYDAFGGPSTGRGRGRGHMGDFGSIHRPGIVVDYQNKSTNVTVAAARGIKRKMMQPFNKPSGTFIKKPKLAKPMEKISLSKSPTKTDPKNEEEEKRRIEARREKQRRRREKNSEKYGDGYRMAFTCSFCKFRTFEEKDIELHLESSSHQETLDHIQKQTKFDKVVMEFLHECMVNKFKKTSIRKQQTNNQTEVVKIIEKDVMEGVTVDDHMMKVETVHCSACSVYIPALHSSVQQHLKSPDHIKGKQAYKEQIKRESVLTATSILNNPIVKARYERFVKGENPFEIQDHSQDQQIEGDEEDEEKIDEPIEEEEDEDEEEEAEEVGEVEEVEEVEEVREGGIEGEGNIQGVGEGGEVGVVGEVEGVGEVEEVEELEEETAKEEPADFPVEQPEEN | binds |
| WD repeat-containing protein 46 (protein, UniProt O15213 1-610) METAPKPGKDVPPKKDKLQTKRKKPRRYWEEETVPTTAGASPGPPRNKKNRELRPQRPKNAYILKKSRISKKPQVPKKPREWKNPESQRGLSGTQDPFPGPAPVPVEVVQKFCRIDKSRKLPHSKAKTRSRLEVAEAEEEETSIKAARSELLLAEEPGFLEGEDGEDTAKICQADIVEAVDIASAAKHFDLNLRQFGPYRLNYSRTGRHLAFGGRRGHVAALDWVTKKLMCEINVMEAVRDIRFLHSEALLAVAQNRWLHIYDNQGIELHCIRRCDRVTRLEFLPFHFLLATASETGFLTYLDVSVGKIVAALNARAGRLDVMSQNPYNAVIHLGHSNGTVSLWSPAMKEPLAKILCHRGGVRAVAVDSTGTYMATSGLDHQLKIFDLRGTYQPLSTRTLPHGAGHLAFSQRGLLVAGMGDVVNIWAGQGKASPPSLEQPYLTHRLSGPVHGLQFCPFEDVLGVGHTGGITSMLVPGAGEPNFDGLESNPYRSRKQRQEWEVKALLEKVPAELICLDPRALAEVDVISLEQGKKEQIERLGYDPQAKAPFQPKPKQKGRSSTASLVKRKRKVMDEEHRDKVRQSLQQQHHKEAKAKPTGARPSALDRFVR | binds |
| WD repeat-containing protein 75 (protein, UniProt Q8IWA0 1-830) MVEEENIRVVRCGGSELNFRRAVFSADSKYIFCVSGDFVKVYSTVTEECVHILHGHRNLVTGIQLNPNNHLQLYSCSLDGTIKLWDYIDGILIKTFIVGCKLHALFTLAQAEDSVFVIVNKEKPDIFQLVSVKLPKSSSQEVEAKELSFVLDYINQSPKCIAFGNEGVYVAAVREFYLSVYFFKKKTTSRFTLSSSRNKKHAKNNFTCVACHPTEDCIASGHMDGKIRLWRNFYDDKKYTYTCLHWHHDMVMDLAFSVTGTSLLSGGRESVLVEWRDATEKNKEFLPRLGATIEHISVSPAGDLFCTSHSDNKIIIIHRNLEASAVIQGLVKDRSIFTGLMIDPRTKALVLNGKPGHLQFYSLQSDKQLYNLDIIQQEYINDYGLIQIELTKAAFGCFGNWLATVEQRQEKETELELQMKLWMYNKKTQGFILNTKINMPHEDCITALCFCNAEKSEQPTLVTASKDGYFKVWILTDDSDIYKKAVGWTCDFVGSYHKYQATNCCFSEDGSLLAVSFEEIVTIWDSVTWELKCTFCQRAGKIRHLCFGRLTCSKYLLGATENGILCCWNLLSCALEWNAKLNVRVMEPDPNSENIAAISQSSVGSDLFVFKPSEPRPLYIQKGISREKVQWGVFVPRDVPESFTSEAYQWLNRSQFYFLTKSQSLLTFSTKSPEEKLTPTSKQLLAEESLPTTPFYFILGKHRQQQDEKLNETLENELVQLPLTENIPAISELLHTPAHVLPSAAFLCSMFVNSLLLSKETKSAKEIPEDVDMEEEKESEDSDEENDFTEKVQDTSNTGLGEDIIHQLSKSEEKELRKFRKIDYSWIAAL | binds |
| Putative ATP-dependent RNA helicase DHX30 (protein, UniProt Q7L2E3 1-1194) MFSLDSFRKDRAQHRQRQCKLPPPRLPPMCVNPTPGGTISRASRDLLKEFPQPKNLLNSVIGRALGISHAKDKLVYVHTNGPKKKKVTLHIKWPKSVEVEGYGSKKIDAERQAAAAACQLFKGWGLLGPRNELFDAAKYRVLADRFGSPADSWWRPEPTMPPTSWRQLNPESIRPGGPGGLSRSLGREEEEDEEEELEEGTIDVTDFLSMTQQDSHAPLRDSRGSSFEMTDDDSAIRALTQFPLPKNLLAKVIQIATSSSTAKNLMQFHTVGTKTKLSTLTLLWPCPMTFVAKGRRKAEAENKAAALACKKLKSLGLVDRNNEPLTHAMYNLASLRELGETQRRPCTIQVPEPILRKIETFLNHYPVESSWIAPELRLQSDDILPLGKDSGPLSDPITGKPYVPLLEAEEVRLSQSLLELWRRRGPVWQEAPQLPVDPHRDTILNAIEQHPVVVISGDTGCGKTTRIPQLLLERYVTEGRGARCNVIITQPRRISAVSVAQRVSHELGPSLRRNVGFQVRLESKPPSRGGALLFCTVGILLRKLQSNPSLEGVSHVIVDEVHERDVNTDFLLILLKGLQRLNPALRLVLMSATGDNERFSRYFGGCPVIKVPGFMYPVKEHYLEDILAKLGKHQYLHRHRHHESEDECALDLDLVTDLVLHIDARGEPGGILCFLPGWQEIKGVQQRLQEALGMHESKYLILPVHSNIPMMDQKAIFQQPPVGVRKIVLATNIAETSITINDIVHVVDSGLHKEERYDLKTKVSCLETVWVSRANVIQRRGRAGRCQSGFAYHLFPRSRLEKMVPFQVPEILRTPLENLVLQAKIHMPEKTAVEFLSKAVDSPNIKAVDEAVILLQEIGVLDQREYLTTLGQRLAHISTDPRLAKAIVLAAIFRCLHPLLVVVSCLTRDPFSSSLQNRAEVDKVKALLSHDSGSDHLAFVRAVAGWEEVLRWQDRSSRENYLEENLLYAPSLRFIHGLIKQFSENIYEAFLVGKPSDCTLASAQCNEYSEEEELVKGVLMAGLYPNLIQVRQGKVTRQGKFKPNSVTYRTKSGNILLHKSTINREATRLRSRWLTYFMAVKSNGSVFVRDSSQVHPLAVLLLTDGDVHIRDDGRRATISLSDSDLLRLEGDSRTVRLLKELRRALGRMVERSLRSELAALPPSVQEEHGQLLALLAELLRGPCGSFDVRKTADD | binds |

These are yes or no findings as the source states them, for the method shown. Binding seen in cells or lysates may run through a third protein. Here binding means that the protein was enriched with, or labelled near, the bait; the list need not be complete.
